Results deposited as PubChem BioAssay AID1259424 (University of Nebraska Medical Center, 2018).

- Aim: 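Rank knockdowns across the genome by resemblance to the KSR1 depletion profile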 (primary screen)
- Cells: human HCT116 colon cancer cells
- Reagent: siRNA pool against human genes, 50 nM
- Detection: 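Six signature mRNAs by branched-DNA multiplex assay, scaled to two housekeeping genes and non-targeting median, log2; matched to mean KSR1 knockdown profile by Pearson correlation and euclidean distance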
- Scale: mean correlation with KSR1 profile and KSR1 correlation: higher = expression change more like KSR1 knockdown; mean distance from KSR1 profile: higher = expression change less like KSR1 knockdown
The whole screen tested about 14,000 reagents; below is a part drawn at random. 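Higher correlation or smaller distance means closer resemblance to KSR1 loss; control wells, including KSR1 knockdowns, recur on many plates.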 Not all columns of the deposit are shown. Not given: the time to read-out.

| gene | mean correlation with KSR1 profile | mean distance from KSR1 profile | KSR1 correlation, replicate 1 | KSR1 correlation, replicate 2 |
| --- | --- | --- | --- | --- |
| GKAP1 (G kinase anchoring protein 1) | -0.21 | 1.97 | 0.0308 | -0.312 |
| HEXB (hexosaminidase subunit beta) | 0.571 | 1.08 | 0.636 | 0.449 |
| GNAT1 (G protein subunit alpha transducin 1) | 0.76 | 1.42 | 0.611 | 0.691 |
| TRIB1 (tribbles pseudokinase 1) | 0.484 | 1.6 | 0.673 | 0.474 |
| MGAT3 | 0.114 | 1.67 | 0.0828 | 0.0351 |
| LDB2 (LIM domain binding 2) | -0.0296 | 2.68 | 0.156 | 0.141 |
| TIMM22 (translocase of inner mitochondrial membrane 22) | 0.161 | 0.979 | -0.249 | -0.627 |
| RPL23 (ribosomal protein L23) | -0.449 | 4.27 | -0.593 | -0.371 |
| MIS18A (MIS18 kinetochore protein A) | 0.212 | 3.37 | 0.364 | 0.234 |
| TXNL4A (thioredoxin like 4A) | -0.402 | 2.59 | -0.166 | -0.465 |
| CEP19 (centrosomal protein 19) | 0.431 | 1.81 | 0.407 | 0.449 |
| KIF4A (kinesin family member 4A) | -0.335 | 1.58 | -0.433 | -0.222 |
| ATP6V0C (ATPase H+ transporting V0 subunit c) | -0.155 | 5.98 | -0.183 | -0.169 |
| TARBP1 (tRNA guanosine 2 -O-methyltransferase TARBP1) | 0.732 | 1.63 | 0.462 | 0.818 |
| SLC25A2 | 0.886 | 1.35 | 0.747 | 0.767 |
| CDK5 (cyclin dependent kinase 5) | 0.108 | 2.17 | 0.136 | 0.0925 |
| TMEM70 (transmembrane protein 70) | 0.517 | 0.968 | 0.847 | 0.311 |
| RABL6 (RAB, member RAS oncogene family like 6) | -0.28 | 1.55 | -0.135 | -0.528 |
| GABBR2 (gamma-aminobutyric acid type B receptor subunit 2) | 0.853 | 1.25 | 0.776 | 0.92 |
| RPS28 (ribosomal protein S28) | -0.743 | 1.94 | -0.888 | -0.649 |
| ANKH (ANKH inorganic pyrophosphate transport regulator) | -0.521 | 2.94 | -0.494 | -0.669 |
| KREMEN2 (kringle containing transmembrane protein 2) | -0.83 | 2.78 | -0.864 | -0.851 |
| TMEM164 (transmembrane protein 164) | 0.327 | 2.52 | 0.037 | 0.354 |
| RNF25 (ring finger protein 25) | -0.436 | 2.26 | -0.39 | -0.698 |
| PAQR8 (progestin and adipoQ receptor family member 8) | 0.778 | 4.14 | 0.797 | 0.683 |
| HOXA5 (homeobox A5) | 0.517 | 2.38 | 0.465 | 0.246 |
| BAG5 (BAG cochaperone 5) | -0.0353 | 2.19 | 0.142 | -0.309 |
| KIF1B (kinesin family member 1B) | -0.478 | 2.29 | -0.333 | -0.658 |
| DUSP8 (dual specificity phosphatase 8) | -0.122 | 2.86 | -0.0637 | -0.345 |
| GTF2IRD1 (GTF2I repeat domain containing 1) | 0.015 | 1.8 | 0.127 | -0.138 |
| INTS5 (integrator complex subunit 5) | 0.112 | 4.91 | -0.0258 | 0.22 |
| ZGRF1 (zinc finger GRF-type containing 1) | -0.145 | 2.63 | 0.118 | -0.448 |
| GABRG1 (gamma-aminobutyric acid type A receptor subunit gamma1) | 0.662 | 0.855 | 0.505 | 0.557 |
| ACAD9 (acyl-CoA dehydrogenase family member 9) | 0.258 | 1.09 | 0.231 | 0.278 |

Laid out differently: 7 of the entries above.
gene | mean correlation with KSR1 profile | mean distance from KSR1 profile | KSR1 correlation, replicate 1 | KSR1 correlation, replicate 2
TARBP1 (tRNA guanosine 2 -O-methyltransferase TARBP1) | 0.732 | 1.63 | 0.462 | 0.818
SLC25A2 | 0.886 | 1.35 | 0.747 | 0.767
CDK5 (cyclin dependent kinase 5) | 0.108 | 2.17 | 0.136 | 0.0925
TMEM70 (transmembrane protein 70) | 0.517 | 0.968 | 0.847 | 0.311
RABL6 (RAB, member RAS oncogene family like 6) | -0.28 | 1.55 | -0.135 | -0.528
GABBR2 (gamma-aminobutyric acid type B receptor subunit 2) | 0.853 | 1.25 | 0.776 | 0.92
RPS28 (ribosomal protein S28) | -0.743 | 1.94 | -0.888 | -0.649

Further entries follow.
| gene | mean correlation with KSR1 profile | mean distance from KSR1 profile | KSR1 correlation, replicate 1 | KSR1 correlation, replicate 2 |
| --- | --- | --- | --- | --- |
| MRPS30 (mitochondrial ribosomal protein S30) | 0.302 | 2.71 | 0.248 | 0.341 |
| CAV1 (caveolin 1) | 0.152 | 1.44 | 0.376 | 0.158 |
| PSPC1 (paraspeckle component 1) | 0.264 | 1.71 | 0.255 | 0.229 |
| CHST4 (carbohydrate sulfotransferase 4) | -0.218 | 2.59 | -0.162 | -0.181 |
| GCNA (germ cell nuclear acidic peptidase) | -0.138 | 1.83 | -0.0347 | -0.0307 |
| SPARCL1 (SPARC like 1) | 0.623 | 1.68 | 0.507 | 0.619 |
| KRT84 (keratin 84) | 0.886 | 0.892 | 0.702 | 0.798 |
| ZCWPW1 (zinc finger CW-type and PWWP domain containing 1) | 0.228 | 1.92 | 0.0241 | 0.323 |
| CSAG2 (CSAG family member 2) | 0.0368 | 1.7 | 0.0549 | 0.2 |
| TBC1D22B (TBC1 domain family member 22B) | -0.283 | 1.17 | -0.659 | -0.0855 |
| PKP3 (plakophilin 3) | 0.204 | 1.29 | 0.483 | -0.0606 |
| CIZ1 (CDKN1A interacting zinc finger protein 1) | 0.52 | 2.15 | 0.521 | 0.345 |
| MAP7D3 (MAP7 domain containing 3) | 0.593 | 1.12 | 0.567 | 0.9 |
| SF3B4 (splicing factor 3b subunit 4) | -0.301 | 2.34 | -0.281 | -0.0759 |
| RXFP1 (relaxin family peptide receptor 1) | 0.63 | 2.41 | 0.691 | 0.698 |
| LYST (lysosomal trafficking regulator) | -0.132 | 1.09 | -0.0147 | -0.4 |
| RMDN3 (regulator of microtubule dynamics 3) | -0.389 | 2.26 | -0.186 | -0.489 |
| ARMC2 (armadillo repeat containing 2) | 0.764 | 1.61 | 0.688 | 0.795 |
| CEMIP (cell migration inducing hyaluronidase 1) | -0.26 | 3.25 | -0.237 | -0.283 |
| TXNDC16 (thioredoxin domain containing 16) | -0.212 | 1.66 | -0.262 | -0.14 |
| ATP6V0E1 (ATPase H+ transporting V0 subunit e1) | -0.423 | 3.82 | -0.332 | -0.416 |
| CSPG4 (chondroitin sulfate proteoglycan 4) | 0.429 | 1.73 | 0.407 | 0.415 |
| ASL (argininosuccinate lyase) | 0.416 | 1.28 | 0.267 | 0.411 |
| LMNB1 (lamin B1) | 0.143 | 1.63 | 0.0722 | -0.11 |
| PRL (prolactin) | -0.567 | 1.59 | -0.231 | -0.821 |
| SPI1 (Spi-1 proto-oncogene) | 0.473 | 4.34 | 0.571 | 0.558 |
| SMARCA4 | -0.246 | 1 | -0.269 | -0.271 |
| TLR6 (toll like receptor 6) | -0.277 | 3.23 | -0.0594 | -0.117 |
| CELF5 (CUGBP Elav-like family member 5) | -0.358 | 2.83 | -0.126 | -0.308 |
